Results are given in words; binding and its absence hold for the method and conditions named. Binding can be weak; no strength is given.
Columns and labels:
[1] = target: PCNA subunit SiRe_1602 of Sulfolobus islandicus REY15A (Sulfolobus islandicus REY15A) (UniProt F0NHS7); assay: SEC; mixture of the three purified PCNA subunits passed through a gel filtration column (Superdex 200 10/300; 50 mM Tris-HCl pH 8.0, 100 mM NaCl, 5% glycerol); heterotrimer eluted around 13 ml, earlier than the individual subunits; both purified
[2] = target: PCNA subunit SiRe_1594 of Sulfolobus islandicus REY15A (Sulfolobus islandicus REY15A) (UniProt F0NHR9); assay: as above

Sequences of proteins named here, by UniProt entry; tags and fusion partners are left off. A change or cut given only in a name is not applied to a line headed by its entry.
UniProt F0NHS7: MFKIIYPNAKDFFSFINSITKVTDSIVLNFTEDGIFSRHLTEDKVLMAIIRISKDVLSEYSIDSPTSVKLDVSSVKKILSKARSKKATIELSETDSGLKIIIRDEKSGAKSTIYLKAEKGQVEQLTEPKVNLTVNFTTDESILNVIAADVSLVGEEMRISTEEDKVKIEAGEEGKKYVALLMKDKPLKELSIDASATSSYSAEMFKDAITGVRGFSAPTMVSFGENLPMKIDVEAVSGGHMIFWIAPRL
UniProt F0NHR9: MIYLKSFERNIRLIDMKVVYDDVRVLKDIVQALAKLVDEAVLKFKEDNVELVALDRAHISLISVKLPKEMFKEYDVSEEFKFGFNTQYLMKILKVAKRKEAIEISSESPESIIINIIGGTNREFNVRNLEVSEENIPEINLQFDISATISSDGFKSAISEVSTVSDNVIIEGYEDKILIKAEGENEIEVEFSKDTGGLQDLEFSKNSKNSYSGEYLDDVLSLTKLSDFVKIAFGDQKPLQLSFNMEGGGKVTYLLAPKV
UniProt F0NGU9: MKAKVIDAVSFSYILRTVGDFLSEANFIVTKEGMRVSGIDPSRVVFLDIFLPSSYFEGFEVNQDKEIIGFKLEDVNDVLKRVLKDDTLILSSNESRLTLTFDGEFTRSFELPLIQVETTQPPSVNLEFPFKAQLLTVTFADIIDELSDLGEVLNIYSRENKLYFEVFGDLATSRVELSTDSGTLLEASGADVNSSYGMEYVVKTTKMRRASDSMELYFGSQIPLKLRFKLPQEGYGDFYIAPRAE

Row | Substance | binding [1] | binding [2]
1 | PCNA subunit SiRe_1048 of Sulfolobus islandicus REY15A (from UniProt F0NGU9) | binds | binds
2 | PCNA subunit SiRe_1602 of Sulfolobus islandicus REY15A (from UniProt F0NHS7) |  | binds
